# Data published in the supplement of paper PMC8728848.
# The list shows a part of the results.
# B1: Thrombomodulin Lectin (Mus musculus) (protein)
# chain: LSALAKLQPTGSQCVEHECFALFQGPATFLDASQACQRLQGHLMTVRSSVAADVISLLLSQSSMDLGPWIGLQLPQGCDDPVHLGPLRGFQWVTGDNHTSYSRWARPNDQTAPLCGPLCVTVSTATEAAPGEPAWEEKPCETETQGFLCEFYFTASCRVDPIPVREDTKEEEGAGEPPVSPTPGSPTGPPSARPVLDEPRVPITQNPCPPLKECPPCAAPDLEGGPSVFIFPPKIKDVLMISLSPMVTCVVVDVSEDDPDVQISWFVNNVEVHTAQTQTHREDYNSTLRVVSALPIQHQDWMSGKAFACAVNNRALPSPIEKTISKPRGPVRAPQVYVLPPPAEEMTKKEFSLTCMITGFLPAEIAVDWTSNGRTEQNYKNTATVLDSDGSYFMYSKLRVQKSTWERGSLFACSVVHEGLHNHLTTKTISRSLGK
# How the values were obtained:
# Assay in all cases: glycan array binding signal (z-score within array); higher = stronger binding
# Settings in all cases: glycan notation: IUPAC condensed, linker removed
# Gal(b1-4)Glc = target: Gal(b1-4)Glc
# How it was run: (§1)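 From the Consortium for Functional Glycomics database, 3228 arrays were curated, keeping only those whose protein sequence was available. Binding is given as a within-array Z-score averaged across arrays sharing a protein sequence and across linkers. Negative Z-scores can be read as non-binding.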
# Gal(b1-4)Glc6S = target: Gal(b1-4)Glc6S
# How it was run: as §1
# Gal(b1-4)GlcNAc = target: Gal(b1-4)GlcNAc
# How it was run: as §1
# [1] = target: Gal(b1-4)GlcNAc(a1-6)Gal(b1-4)GlcNAc
# How it was run: as §1
# Gal(b1-4)GlcNAc(b1-2)Man = target: Gal(b1-4)GlcNAc(b1-2)Man
# How it was run: as §1
# [2] = target: Gal(b1-4)GlcNAc(b1-2)Man(a1-3)Man(b1-4)GlcNAc(b1-4)GlcNAc
# How it was run: as §1
# [3] = target: Gal(b1-4)GlcNAc(b1-2)Man(a1-3)[Gal(b1-4)GlcNAc(b1-2)Man(a1-6)]Man(b1-4)GlcNAc(b1-4)GlcNAc
# How it was run: as §1
# [4] = target: Gal(b1-4)GlcNAc(b1-2)Man(a1-3)[Gal(b1-4)GlcNAc(b1-2)Man(a1-6)]Man(b1-4)GlcNAc(b1-4)[Fuc(a1-6)]GlcNAc
# How it was run: as §1
# [5] = target: Gal(b1-4)GlcNAc(b1-2)Man(a1-3)[Gal(b1-4)GlcNAc(b1-2)Man(a1-6)][Gal(b1-4)GlcNAc(b1-4)]Man(b1-4)GlcNAc(b1-4)[Fuc(a1-6)]GlcNAc
# How it was run: as §1
# [6] = target: Gal(b1-4)GlcNAc(b1-2)Man(a1-3)[Gal(b1-4)GlcNAc(b1-2)Man(a1-6)][GlcNAc(b1-4)]Man(b1-4)GlcNAc(b1-4)[Fuc(a1-6)]GlcNAc
# How it was run: as §1
# [7] = target: Gal(b1-4)GlcNAc(b1-2)Man(a1-3)[GlcNAc(b1-2)Man(a1-6)]Man(b1-4)GlcNAc(b1-4)GlcNAc
# How it was run: as §1
# [8] = target: Gal(b1-4)GlcNAc(b1-2)Man(a1-3)[GlcNAc(b1-4)][Gal(b1-4)GlcNAc(b1-2)Man(a1-6)]Man(b1-4)GlcNAc(b1-4)GlcNAc
# How it was run: as §1
# [9] = target: Gal(b1-4)GlcNAc(b1-2)Man(a1-3)[Man(a1-6)]Man(b1-4)GlcNAc(b1-4)GlcNAc
# How it was run: as §1
# [10] = target: Gal(b1-4)GlcNAc(b1-2)Man(a1-6)Man(b1-4)GlcNAc(b1-4)GlcNAc
# How it was run: as §1
# [11] = target: Gal(b1-4)GlcNAc(b1-2)Man(a1-6)[GlcNAc(b1-2)Man(a1-3)]Man(b1-4)GlcNAc(b1-4)GlcNAc
# How it was run: as §1
# [12] = target: Gal(b1-4)GlcNAc(b1-2)Man(a1-6)[Man(a1-3)]Man(b1-4)GlcNAc(b1-4)GlcNAc
# How it was run: as §1
# [13] = target: Gal(b1-4)GlcNAc(b1-2)[Gal(b1-4)GlcNAc(b1-4)]Man(a1-3)[Gal(b1-4)GlcNAc(b1-2)Man(a1-6)]Man(b1-4)GlcNAc(b1-4)GlcNAc
# How it was run: as §1
# [14] = target: Gal(b1-4)GlcNAc(b1-2)[Gal(b1-4)GlcNAc(b1-4)]Man(a1-3)[Gal(b1-4)GlcNAc(b1-2)[Gal(b1-4)GlcNAc(b1-6)]Man(a1-6)]Man(b1-4)GlcNAc(b1-4)GlcNAc
# How it was run: as §1
# [15] = target: Gal(b1-4)GlcNAc(b1-2)[Gal(b1-4)GlcNAc(b1-4)]Man(a1-3)[GlcNAc(b1-4)][Gal(b1-4)GlcNAc(b1-2)Man(a1-6)]Man(b1-4)GlcNAc(b1-4)GlcNAc
# How it was run: as §1
# [16] = target: Gal(b1-4)GlcNAc(b1-2)[Gal(b1-4)GlcNAc(b1-4)]Man(a1-3)[GlcNAc(b1-4)][Gal(b1-4)GlcNAc(b1-2)[Gal(b1-4)GlcNAc(b1-6)]Man(a1-6)]Man(b1-4)GlcNAc(b1-4)GlcNAc
# How it was run: as §1
# [17] = target: Gal(b1-4)GlcNAc(b1-2)[Gal(b1-4)GlcNAc(b1-6)]Man(a1-6)[Gal(b1-4)GlcNAc(b1-2)Man(a1-3)]Man(b1-4)GlcNAc(b1-4)GlcNAc
# How it was run: as §1
# [18] = target: Gal(b1-4)GlcNAc(b1-2)[Gal(b1-4)GlcNAc(b1-6)]Man(a1-6)[Gal(b1-4)GlcNAc(b1-2)Man(a1-3)]Man(b1-4)GlcNAc(b1-4)[Fuc(a1-6)]GlcNAc
# How it was run: as §1
# [19] = target: Gal(b1-4)GlcNAc(b1-2)[Gal(b1-4)GlcNAc(b1-6)]Man(a1-6)[GlcNAc(b1-4)][Gal(b1-4)GlcNAc(b1-2)Man(a1-3)]Man(b1-4)GlcNAc(b1-4)GlcNAc
# How it was run: as §1
# [20] = target: Gal(b1-4)GlcNAc(b1-2)[Gal(b1-4)GlcNAc(b1-6)]Man(a1-6)[GlcNAc(b1-4)][Gal(b1-4)GlcNAc(b1-2)[Gal(b1-4)GlcNAc(b1-4)]Man(a1-3)]Man(b1-4)GlcNAc(b1-4)[Fuc(a1-6)]GlcNAc
# How it was run: as §1
# [21] = target: Gal(b1-4)GlcNAc(b1-3)Gal(b1-3)GalNAc
# How it was run: as §1
# [22] = target: Gal(b1-4)GlcNAc(b1-3)Gal(b1-3)GlcNAc
# How it was run: as §1
# [23] = target: Gal(b1-4)GlcNAc(b1-3)Gal(b1-4)Glc
# How it was run: as §1
# [24] = target: Gal(b1-4)GlcNAc(b1-3)Gal(b1-4)GlcNAc
# How it was run: as §1
# [25] = target: Gal(b1-4)GlcNAc(b1-3)Gal(b1-4)GlcNAc(b1-2)Man(a1-3)[Gal(b1-4)GlcNAc(b1-3)Gal(b1-4)GlcNAc(b1-2)Man(a1-6)]Man(b1-4)GlcNAc(b1-4)GlcNAc
# How it was run: as §1
# [26] = target: Gal(b1-4)GlcNAc(b1-3)Gal(b1-4)GlcNAc(b1-2)Man(a1-3)[Gal(b1-4)GlcNAc(b1-3)Gal(b1-4)GlcNAc(b1-2)Man(a1-6)]Man(b1-4)GlcNAc(b1-4)[Fuc(a1-6)]GlcNAc
# How it was run: as §1
# [27] = target: Gal(b1-4)GlcNAc(b1-3)Gal(b1-4)GlcNAc(b1-2)[Gal(b1-4)GlcNAc(b1-3)Gal(b1-4)GlcNAc(b1-6)]Man(a1-6)[Gal(b1-4)GlcNAc(b1-3)Gal(b1-4)GlcNAc(b1-2)Man(a1-3)]Man(b1-4)GlcNAc(b1-4)GlcNAc
# How it was run: as §1
# [28] = target: Gal(b1-4)GlcNAc(b1-3)Gal(b1-4)GlcNAc(b1-2)[Gal(b1-4)GlcNAc(b1-3)Gal(b1-4)GlcNAc(b1-6)]Man(a1-6)[Gal(b1-4)GlcNAc(b1-3)Gal(b1-4)GlcNAc(b1-2)Man(a1-3)]Man(b1-4)GlcNAc(b1-4)[Fuc(a1-6)]GlcNAc
# How it was run: as §1
# [29] = target: Gal(b1-4)GlcNAc(b1-3)Gal(b1-4)GlcNAc(b1-3)Gal(b1-4)GlcNAc
# How it was run: as §1
# [30] = target: Gal(b1-4)GlcNAc(b1-3)Gal(b1-4)GlcNAc(b1-3)Gal(b1-4)GlcNAc(b1-2)Man(a1-3)[Gal(b1-4)GlcNAc(b1-3)Gal(b1-4)GlcNAc(b1-3)Gal(b1-4)GlcNAc(b1-2)Man(a1-6)]Man(b1-4)GlcNAc(b1-4)GlcNAc
# How it was run: as §1
# [31] = target: Gal(b1-4)GlcNAc(b1-3)Gal(b1-4)GlcNAc(b1-3)Gal(b1-4)GlcNAc(b1-2)Man(a1-3)[Gal(b1-4)GlcNAc(b1-3)Gal(b1-4)GlcNAc(b1-3)Gal(b1-4)GlcNAc(b1-2)Man(a1-6)]Man(b1-4)GlcNAc(b1-4)[Fuc(a1-6)]GlcNAc
# How it was run: as §1
# [32] = target: Gal(b1-4)GlcNAc(b1-3)Gal(b1-4)GlcNAc(b1-3)Gal(b1-4)GlcNAc(b1-2)[Gal(b1-4)GlcNAc(b1-3)Gal(b1-4)GlcNAc(b1-3)Gal(b1-4)GlcNAc(b1-6)]Man(a1-6)[Gal(b1-4)GlcNAc(b1-3)Gal(b1-4)GlcNAc(b1-3)Gal(b1-4)GlcNAc(b1-2)Man(a1-3)]Man(b1-4)GlcNAc(b1-4)[Fuc(a1-6)]GlcNAc
# How it was run: as §1
# [33] = target: Gal(b1-4)GlcNAc(b1-3)Gal(b1-4)GlcNAc(b1-3)Gal(b1-4)GlcNAc(b1-3)Gal(b1-4)GlcNAc(b1-2)Man(a1-3)[Gal(b1-4)GlcNAc(b1-3)Gal(b1-4)GlcNAc(b1-3)Gal(b1-4)GlcNAc(b1-3)Gal(b1-4)GlcNAc(b1-2)Man(a1-6)]Man(b1-4)GlcNAc(b1-4)GlcNAc
# How it was run: as §1
binder,measurement,setting,value
B1,glycan array binding signal (z-score),Gal(b1-4)Glc,-0.164
same,glycan array binding signal (z-score),Gal(b1-4)Glc6S,0.801
same,glycan array binding signal (z-score),Gal(b1-4)GlcNAc,0.191
same,glycan array binding signal (z-score),[1],-2.05
same,glycan array binding signal (z-score),Gal(b1-4)GlcNAc(b1-2)Man,-1.6
same,glycan array binding signal (z-score),[2],0.338
same,glycan array binding signal (z-score),[3],0.94
same,glycan array binding signal (z-score),[4],0.204
same,glycan array binding signal (z-score),[5],0.267
same,glycan array binding signal (z-score),[6],-0.788
same,glycan array binding signal (z-score),[7],-1.49
same,glycan array binding signal (z-score),[8],0.119
same,glycan array binding signal (z-score),[9],-0.565
same,glycan array binding signal (z-score),[10],-0.184
same,glycan array binding signal (z-score),[11],-0.817
same,glycan array binding signal (z-score),[12],0.659
same,glycan array binding signal (z-score),[13],2.75
same,glycan array binding signal (z-score),[14],-1.05
same,glycan array binding signal (z-score),[15],-0.678
same,glycan array binding signal (z-score),[16],-0.59
same,glycan array binding signal (z-score),[17],1.04
same,glycan array binding signal (z-score),[18],-0.089
same,glycan array binding signal (z-score),[19],-0.306
same,glycan array binding signal (z-score),[20],-0.699
same,glycan array binding signal (z-score),[21],0.228
same,glycan array binding signal (z-score),[22],-1.68
same,glycan array binding signal (z-score),[23],-0.492
same,glycan array binding signal (z-score),[24],-0.416
same,glycan array binding signal (z-score),[25],1.18
same,glycan array binding signal (z-score),[26],1.18
same,glycan array binding signal (z-score),[27],-0.241
same,glycan array binding signal (z-score),[28],-0.263
same,glycan array binding signal (z-score),[29],0.37
same,glycan array binding signal (z-score),[30],0.742
same,glycan array binding signal (z-score),[31],1.73
same,glycan array binding signal (z-score),[32],-0.14
same,glycan array binding signal (z-score),[33],1.01

# 2 entries from above, as tab-separated lines.
binder	measurement	setting	value
B1	glycan array binding signal (z-score)	[17]	1.04
same	glycan array binding signal (z-score)	[18]	-0.089
